Values joined by “and” are separate entries in the source; they are usually repeats but may differ in a detail not shown here. Identical values can stand only once. Counter-ions that a name gives are not always drawn. ± gives the standard deviation of the averaged measurements. This is one part of the list. Single values are uncertain, as repeats are few or missing.
Test system: RAW 264.7
Assay: cell viability (MTT) relative to vehicle control; higher = more viable cells
Conditions: stimulus: HMGB1 5 ug/ml, 18 h
[1] = compound concentration: 1 ug/ml

## O=c1cc(-c2ccccc2)oc2cc(O)c(O)c(O)c12 [Baicalein]
[1]
  cell viability: 98.9%

## COc1cc(C2Oc3cc([C@H]4Oc5cc(O)cc(O)c5C(=O)[C@@H]4O)ccc3OC2CO)ccc1O (stereo partly specified)
Compound concentration: 3 uM
  cell viability: 104%

## O=c1[nH]c2cc(C(F)(F)F)ccc2n1-c1cc(C(F)(F)F)ccc1O
Compound concentration: 3 uM
  cell viability: 103%

## C[C@]12C[C@H](O)[C@H]3[C@@H](CCC4=CC(=O)CC[C@@]43C)[C@@H]1CC[C@@H]2C(=O)CO
Compound concentration: 3 uM
  cell viability: 106%

## C[C@]12C[C@H](O)[C@H]3[C@@H](CCC4=CC(=O)CC[C@@]43C)[C@@H]1CC[C@@H]2C(=O)CO [Corticosterone]
Compound concentration: 3 uM
  cell viability: 103 ± 9.5%

## COC(=O)C1=C(C)NC(C)=C(C(=O)OC2CCCN(Cc3ccccc3)C2)C1c1cccc([N+](=O)[O-])c1 (stereo unspecified)
Compound concentration: 3 uM
  cell viability: 95.3%

## CCc1ccc2c(-c3cccc(Cl)c3)nc(=O)n(CC)c2n1
Compound concentration: 3 uM
  cell viability: 102%

## O=C(CCCCCCC(=O)Nc1ccccc1)NO [Vorinostat]
Compound concentration: 3 uM
  cell viability: 38.5%

## CC(C)ON([C@@H](C(=O)NO)C(C)C)S(=O)(=O)c1ccc(-c2ccccc2)cc1
Compound concentration: 3 uM
  cell viability: 99.2%

## CC[C@H]1OC(=O)C[C@@H](O)[C@H](C)[C@@H](O[C@@H]2O[C@H](C)[C@@H](O[C@H]3C[C@@](C)(O)[C@@H](O)[C@H](C)O3)[C@H](N(C)C)[C@H]2O)[C@@H](CC=O)C[C@@H](C)C(=O)/C=C/C(C)=C/[C@@H]1CO[C@@H]1O[C@H](C)[C@@H](O)[C@@H](OC)[C@H]1OC [Tylosin]
Compound concentration: 3 uM
  cell viability: 103 ± 5.2%

## CC[C@H]1OC(=O)C[C@@H](O)[C@H](C)[C@@H](O[C@@H]2O[C@H](C)[C@@H](O[C@H]3C[C@@](C)(O)[C@@H](O)[C@H](C)O3)[C@H](N(C)C)[C@H]2O)[C@@H](CC=O)C[C@@H](C)C(=O)/C=C/C(C)=C/[C@@H]1CO[C@@H]1O[C@H](C)[C@@H](O)[C@@H](OC)[C@H]1OC
Compound concentration: 3 uM
  cell viability: 106%

## COC(=O)C1=C(C)NC(C)=C([N+](=O)[O-])C1c1ccccc1C(F)(F)F (racemic)
Compound concentration: 3 uM
  cell viability: 93%

## Oc1ccc(Cn2cc[nH]c2=S)cc1 [1-(4-Hydroxybenzyl)imidazole-2-thiol]
Compound concentration: 3 uM
  cell viability: 102%

## CCN(CC)CCOc1ccc2c(c1)C(=O)c1cc(OCCN(CC)CC)ccc1-2
Compound concentration: 3 uM
  cell viability: 105%

## c1ccc(-c2ccccn2)nc1 [2,2'-Bipyridyl]
Compound concentration: 3 uM
  cell viability: 99%

## COc1ccccc1N1CCN(CCN(C(=O)c2ccc(F)cc2)c2ccccn2)CC1 [p-MPPF dihydrochloride]
Compound concentration: 3 uM
  cell viability: 114%

## CC1(C)O[C@@H]2C[C@H]3[C@@H]4CCC5=CC(=O)C=C[C@]5(C)[C@H]4[C@@H](O)C[C@]3(C)[C@]2(C(=O)CO)O1
Compound concentration: 3 uM
  cell viability: 115%

## Nc1ccc2cn[nH]c2c1
Compound concentration: 3 uM
  cell viability: 95.4%

## C/C(=C(\CCOP(=O)(O)O)SC(=O)c1ccccc1)N(C=O)Cc1cnc(C)nc1N
Compound concentration: 3 uM
  cell viability: 111%

## C/C(=C(\CCOP(=O)(O)O)SC(=O)c1ccccc1)N(C=O)Cc1cnc(C)nc1N [Benfotiamine]
Compound concentration: 3 uM
  cell viability: 109%

## CN(Cc1cnc2nc(N)nc(N)c2n1)c1ccc(C(=O)NC(CCC(=O)O)C(=O)O)cc1 (racemic)
Compound concentration: 3 uM
  cell viability: 92.8 ± 12%

## C=C[C@@]1(C)CC(=O)[C@]2(O)[C@@]3(C)[C@@H](O)CCC(C)(C)[C@@H]3[C@H](O)[C@H](OC(C)=O)[C@@]2(C)O1
Compound concentration: 3 uM
  cell viability: 98.7%

## C=C[C@@]1(C)CC(=O)[C@]2(O)[C@@]3(C)[C@@H](O)CCC(C)(C)[C@@H]3[C@H](O)[C@H](OC(C)=O)[C@@]2(C)O1 [Forskolin]
Compound concentration: 3 uM
  cell viability: 105%

## CCN(CC)C(=S)SSC(=S)N(CC)CC
Compound concentration: 3 uM
  cell viability: 96.7%

## CCN(CC)C(=S)SSC(=S)N(CC)CC [Disulfiram]
Compound concentration: 3 uM
  cell viability: 92.5 ± 10%

## O=c1cc(-c2ccccc2)oc2cc(O)cc(O)c12 [Chrysin]
[1]
  cell viability: 98.7%

## Nc1ncnc2c1ncn2[C@@H]1O[C@H](COP(=O)(O)OP(=O)(O)O)[C@@H](O)[C@H]1O [Adenosine 5'-diphosphate, monosodium salt dihydrate]
[1]
  cell viability: 96.1%

## Nc1ncnc2c1ncn2[C@@H]1O[C@H](COP(=O)(O)OP(=O)(O)O)[C@@H](O)[C@H]1O [Adenosine-5'-diphosphate, disodium salt hydrate]
[1]
  cell viability: 92.5%

## NC[C@H]1CC[C@H](C(=O)Oc2ccc(CCC(=O)O)cc2)CC1
Compound concentration: 3 uM
  cell viability: 97.7%

## Nc1c2c(nc3ccccc13)CCCC2 [Tacrine]
Compound concentration: 3 uM
  cell viability: 104%

## Nc1c2c(nc3ccccc13)CCCC2
Compound concentration: 3 uM
  cell viability: 97.3% and 97.8%

## Nc1c2c(nc3ccccc13)CCCC2 [9-Amino-1,2,3,4-tetrahydroacridine hydrochloride]
Compound concentration: 3 uM
  cell viability: 96.7%

## O=C1CN(/N=C/c2ccc([N+](=O)[O-])o2)C(=O)N1
Compound concentration: 3 uM
  cell viability: 102%

## O=C1CN(/N=C/c2ccc([N+](=O)[O-])o2)C(=O)N1 [Nitrofurantoin]
Compound concentration: 3 uM
  cell viability: 94.3%

## CS(=O)(=O)c1ccc(-c2cc(Br)sc2-c2ccc(F)cc2)cc1
Compound concentration: 3 uM
  cell viability: 102%

## NC(N)=NC(=O)c1nc(Cl)c(N2CCCCCC2)nc1N [5-(N,N-hexamethylene)amiloride]
Compound concentration: 3 uM
  cell viability: 97.7%

## CC1=C(CC(=O)O)c2cc(F)ccc2/C1=C\c1ccc(S(C)(=O)=O)cc1 [Sulindac sulfone]
Compound concentration: 3 uM
  cell viability: 140%

## S=c1ccss1
Compound concentration: 3 uM
  cell viability: 135%

## Cc1ccccc1OCC(O)CO (stereo unspecified)
Compound concentration: 3 uM
  cell viability: 114%

## Cc1ccccc1OCC(O)CO (stereo unspecified) [Mephenesin]
Compound concentration: 3 uM
  cell viability: 95%

## CC(C)(C)C(=O)C(Oc1ccc(Cl)cc1)n1ccnc1 (stereo unspecified) [Climbazole]
Compound concentration: 3 uM
  cell viability: 91.8%

## Cc1c(C(=O)O)c(O)cc2c1C(=O)c1c(O)c([C@@H]3O[C@H](CO)[C@@H](O)[C@H](O)[C@H]3O)c(O)c(O)c1C2=O [Carminic acid]
[1]
  cell viability: 95.9%

## COc1c(-c2ccccc2)oc2c(ccc3occc32)c1=O [Karanjin]
[1]
  cell viability: 100%

## Cc1nc2sccn2c(=O)c1CCN1CCC(=C(c2ccccc2)c2ccc(F)cc2)CC1 [Diacylglycerol kinase inhibitor I]
Compound concentration: 3 uM
  cell viability: 105%

## CC(C)=CCC/C(C)=C/CC/C(C)=C/CO [Farnesol, mixture of isomers]
[1]
  cell viability: 102%

## CC1(C)S[C@@H]2[C@H](NC(=O)C(C(=O)O)c3ccccc3)C(=O)N2[C@H]1C(=O)O (stereo partly specified)
Compound concentration: 3 uM
  cell viability: 108%

## CCN(CC)CCOC(=O)C(Cc1cccc2ccccc12)CC1CCCO1 (stereo unspecified)
Compound concentration: 3 uM
  cell viability: 99.6%

## CCN(CC)CCOC(=O)C(Cc1cccc2ccccc12)CC1CCCO1 (stereo unspecified) [Nafronyl oxalate]
Compound concentration: 3 uM
  cell viability: 96.4%

## COc1ccc(C(=O)/C(Br)=C\C(=O)O)cc1 [Bromebric acid]
Compound concentration: 3 uM
  cell viability: 106%

## C[C@H](N)[C@H](O)c1cccc(O)c1
Compound concentration: 3 uM
  cell viability: 109%

## C[C@H](N)[C@H](O)c1cccc(O)c1 [Metaraminol bitartrate]
Compound concentration: 3 uM
  cell viability: 104%

## NC(=O)NC(CC(=O)O)C(=O)O (racemic) [Ureidosuccinic acid; Carbamoyl-dl-aspartic acid]
[1]
  cell viability: 100%

## CCOC(=O)n1ccn(C)c1=S
Compound concentration: 3 uM
  cell viability: 103%

## CCOC(=O)n1ccn(C)c1=S [Carbimazole]
Compound concentration: 3 uM
  cell viability: 109%

## CC(C)[C@H]1c2ccc(F)cc2CC[C@@]1(CCN(C)CCCc1nc2ccccc2[nH]1)OC(=O)C1CC1
Compound concentration: 3 uM
  cell viability: 92.2%

## COc1cc(O)c2c(c1)C(=O)c1cc(C)cc(O)c1C2=O
Compound concentration: 3 uM
  cell viability: 139%

## O=C1CN(/N=C/c2ccc(-c3ccc([N+](=O)[O-])cc3)o2)C(=O)N1
Compound concentration: 3 uM
  cell viability: 103%

## O=C1CN(/N=C/c2ccc(-c3ccc([N+](=O)[O-])cc3)o2)C(=O)N1 [Dantrolene sodium]
Compound concentration: 3 uM
  cell viability: 98.9%

## O=C1CN(/N=C/c2ccc(-c3ccc([N+](=O)[O-])cc3)o2)C(=O)N1 [Dantrolene sodium salt]
Compound concentration: 3 uM
  cell viability: 98.3%

## O=C(c1ccc2c(c1)OCCO2)N1CCCCC1
Compound concentration: 3 uM
  cell viability: 101%

## Cc1cc(NS(=O)(=O)c2ccc(N)cc2)no1
Compound concentration: 3 uM
  cell viability: 101%

## Cc1cc(NS(=O)(=O)c2ccc(N)cc2)no1 [Sulfamethoxazole]
Compound concentration: 3 uM
  cell viability: 106%

## CN[C@@H]1[C@@H](O)[C@@H](O[C@@H]2[C@@H](O)[C@H](O[C@H]3OC(CN)=CC[C@H]3N)[C@@H](N)C[C@H]2N)OC[C@]1(C)O [Sisomicin sulfate]
Compound concentration: 3 uM
  cell viability: 91.7%

## CN[C@@H]1[C@@H](O)[C@@H](O[C@@H]2[C@@H](O)[C@H](O[C@H]3OC(CN)=CC[C@H]3N)[C@@H](N)C[C@H]2N)OC[C@]1(C)O
Compound concentration: 3 uM
  cell viability: 102%

## CC1(C)S[C@@H]2[C@H](NC(=O)[C@H](C(=O)O)c3ccsc3)C(=O)N2[C@H]1C(=O)O [Ticarcillin sodium]
Compound concentration: 3 uM
  cell viability: 90.4%

## CC1(C)S[C@@H]2[C@H](NC(=O)[C@H](C(=O)O)c3ccsc3)C(=O)N2[C@H]1C(=O)O
Compound concentration: 3 uM
  cell viability: 105%

## COC(=O)c1c(C)[nH]c(C)c1C(=O)c1ccccc1Cc1ccccc1
Compound concentration: 3 uM
  cell viability: 111%

## COc1cc(C(O)CO)ccc1OS(=O)(=O)O (stereo unspecified) [MHPG sulfate potassium]
Compound concentration: 3 uM
  cell viability: 111%

## Cc1ccc2oc(-c3ccccc3)c(O)c(=O)c2c1 [6-Methylflavonol]
[1]
  cell viability: 98.8%

## CN1[C@@H]2CC[C@H]1CC(OC(=O)c1c[nH]c3ccccc13)C2 (stereo partly specified) [3-Tropanyl-indole-3-carboxylate hydrochloride]
Compound concentration: 3 uM
  cell viability: 86.4%

## CCCCCCCCCCCCCCCCCCOCC(COP(=O)([O-])OCC[N+](C)(C)C)OC (stereo unspecified)
Compound concentration: 3 uM
  cell viability: 92.1%

## NCCC1CCCC(CCN)N1 (stereo unspecified) [MDL 26,630 trihydrochloride]
Compound concentration: 3 uM
  cell viability: 109%

## CCCC1O[C@@H]2C[C@H]3[C@@H]4CCC5=CC(=O)C=C[C@]5(C)[C@H]4[C@@H](O)C[C@]3(C)[C@]2(C(=O)CO)O1 (stereo partly specified) [Budesonide]
Compound concentration: 3 uM
  cell viability: 106 ± 13%

## CCCC1O[C@@H]2C[C@H]3[C@@H]4CCC5=CC(=O)C=C[C@]5(C)[C@H]4[C@@H](O)C[C@]3(C)[C@]2(C(=O)CO)O1 (stereo partly specified)
Compound concentration: 3 uM
  cell viability: 110%

## Nc1cn([C@@H]2O[C@H](CO)[C@H](O)C2O)c(=O)[nH]c1=O (stereo partly specified) [5-Aminouridine hydrochloride]
[1]
  cell viability: 97%

## CC1=C(/C=C/C(C)=C/C=C/C(C)=C/C=C/C=C(C)/C=C/C=C(C)/C=C/C2=C(C)C(=O)CCC2(C)C)C(C)(C)CCC1=O [Canthaxanthin]
Compound concentration: 3 uM
  cell viability: 116%

Reference: the supplement of paper PMC3682954
